No constants are given. Whether binding was seen depends on the method and setting. In cells and extracts the contact can be indirect. A yes stands for co-enrichment or nearness to the bait. Other partners may have been found.

Chains of the proteins cited; added tags and fusions are not shown. Lines headed by an entry give the natural chain unless they say otherwise; changes in a name come on top.
UniProt Q13535: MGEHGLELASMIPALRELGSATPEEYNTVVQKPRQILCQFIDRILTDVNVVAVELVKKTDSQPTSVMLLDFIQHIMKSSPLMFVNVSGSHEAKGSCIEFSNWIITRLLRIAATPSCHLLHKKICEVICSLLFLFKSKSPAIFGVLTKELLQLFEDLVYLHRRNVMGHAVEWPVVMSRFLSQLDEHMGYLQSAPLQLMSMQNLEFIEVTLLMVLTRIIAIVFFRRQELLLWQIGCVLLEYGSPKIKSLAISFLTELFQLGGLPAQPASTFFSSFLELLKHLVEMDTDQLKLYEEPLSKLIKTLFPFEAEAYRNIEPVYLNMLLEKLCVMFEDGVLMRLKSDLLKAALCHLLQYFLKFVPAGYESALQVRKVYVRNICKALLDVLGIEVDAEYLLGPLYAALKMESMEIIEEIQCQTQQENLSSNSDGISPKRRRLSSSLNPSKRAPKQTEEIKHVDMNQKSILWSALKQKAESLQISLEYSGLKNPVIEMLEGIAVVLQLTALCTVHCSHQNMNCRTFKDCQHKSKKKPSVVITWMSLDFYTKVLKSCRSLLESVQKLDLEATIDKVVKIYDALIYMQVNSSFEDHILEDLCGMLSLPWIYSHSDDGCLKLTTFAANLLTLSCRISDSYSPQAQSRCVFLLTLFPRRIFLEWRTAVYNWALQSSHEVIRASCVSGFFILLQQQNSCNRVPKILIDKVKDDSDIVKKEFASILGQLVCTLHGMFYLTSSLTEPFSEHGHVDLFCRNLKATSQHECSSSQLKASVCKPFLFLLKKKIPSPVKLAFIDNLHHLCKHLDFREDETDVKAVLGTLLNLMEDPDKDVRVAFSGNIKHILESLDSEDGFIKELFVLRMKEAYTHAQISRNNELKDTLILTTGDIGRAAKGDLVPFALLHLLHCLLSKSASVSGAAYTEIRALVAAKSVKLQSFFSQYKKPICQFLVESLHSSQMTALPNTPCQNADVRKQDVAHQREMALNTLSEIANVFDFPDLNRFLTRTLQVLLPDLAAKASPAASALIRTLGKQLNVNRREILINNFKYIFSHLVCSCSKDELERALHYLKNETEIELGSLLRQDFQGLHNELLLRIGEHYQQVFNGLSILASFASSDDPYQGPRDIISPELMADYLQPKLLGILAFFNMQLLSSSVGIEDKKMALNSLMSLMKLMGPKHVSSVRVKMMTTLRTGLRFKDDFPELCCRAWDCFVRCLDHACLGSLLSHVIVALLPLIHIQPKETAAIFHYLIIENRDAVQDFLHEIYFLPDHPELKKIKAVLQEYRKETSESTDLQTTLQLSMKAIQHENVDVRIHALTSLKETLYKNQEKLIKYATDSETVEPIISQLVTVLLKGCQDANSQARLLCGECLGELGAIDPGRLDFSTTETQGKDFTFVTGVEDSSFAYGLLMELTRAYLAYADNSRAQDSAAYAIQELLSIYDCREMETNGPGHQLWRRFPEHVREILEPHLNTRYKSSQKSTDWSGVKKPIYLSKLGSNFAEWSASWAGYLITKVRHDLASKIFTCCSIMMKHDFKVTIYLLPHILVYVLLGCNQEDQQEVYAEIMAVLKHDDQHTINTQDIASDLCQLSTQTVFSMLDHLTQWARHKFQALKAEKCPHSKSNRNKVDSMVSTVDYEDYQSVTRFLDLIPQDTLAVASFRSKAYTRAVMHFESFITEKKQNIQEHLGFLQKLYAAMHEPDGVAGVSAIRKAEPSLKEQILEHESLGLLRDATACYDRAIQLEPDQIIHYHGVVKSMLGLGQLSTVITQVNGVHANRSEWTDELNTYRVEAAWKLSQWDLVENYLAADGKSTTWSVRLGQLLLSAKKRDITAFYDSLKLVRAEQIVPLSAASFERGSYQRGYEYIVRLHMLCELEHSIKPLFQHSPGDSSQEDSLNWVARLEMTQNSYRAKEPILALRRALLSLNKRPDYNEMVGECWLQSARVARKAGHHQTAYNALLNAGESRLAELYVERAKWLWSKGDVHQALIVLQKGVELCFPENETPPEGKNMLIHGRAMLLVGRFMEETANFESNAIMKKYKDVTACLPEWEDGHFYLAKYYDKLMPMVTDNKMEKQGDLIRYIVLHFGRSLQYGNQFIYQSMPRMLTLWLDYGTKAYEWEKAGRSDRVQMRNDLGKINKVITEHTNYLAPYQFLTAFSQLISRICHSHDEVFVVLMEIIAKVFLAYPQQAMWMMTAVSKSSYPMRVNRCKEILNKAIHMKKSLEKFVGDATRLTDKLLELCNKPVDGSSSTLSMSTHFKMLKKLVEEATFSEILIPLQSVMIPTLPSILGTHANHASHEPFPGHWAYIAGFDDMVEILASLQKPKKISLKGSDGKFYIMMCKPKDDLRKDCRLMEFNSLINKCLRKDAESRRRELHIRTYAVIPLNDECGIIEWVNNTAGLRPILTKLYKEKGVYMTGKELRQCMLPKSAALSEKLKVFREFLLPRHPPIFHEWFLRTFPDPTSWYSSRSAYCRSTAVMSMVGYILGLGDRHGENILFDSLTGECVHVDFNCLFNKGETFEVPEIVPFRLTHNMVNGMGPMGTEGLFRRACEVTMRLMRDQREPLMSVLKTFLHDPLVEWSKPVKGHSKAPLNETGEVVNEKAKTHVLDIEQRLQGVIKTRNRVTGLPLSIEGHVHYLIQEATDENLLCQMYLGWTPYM

This assay addresses Ataxia-telangiectasia–mutated and Rad3-related protein (ATR) (human (endogenous in NP cells)) (UniProt Q13535). In words: affinity purification with mass spectrometry; endogenous co-IP of ATR from normal and senescent NP cells, IgG isotype as control, n = 3 biological replicates.

B1: tripartite motif–containing 56 (TRIM56) (protein, UniProt Q9BRZ2 1-755)
chain: MVSHGSSPSLLEALSSDFLACKICLEQLRAPKTLPCLHTYCQDCLAQLADGGRVRCPECRETVPVPPEGVASFKTNFFVNGLLDLVKARACGDLRAGKPACALCPLVGGTSTGGPATARCLDCADDLCQACADGHRCTRQTHTHRVVDLVGYRAGWYDEEARERQAAQCPQHPGEALRFLCQPCSQLLCRECRLDPHLDHPCLPLAEAVRARRPGLEGLLAGVDNNLVELEAARRVEKEALARLREQAARVGTQVEEAAEGVLRALLAQKQEVLGQLRAHVEAAEEAARERLAELEGREQVARAAAAFARRVLSLGREAEILSLEGAIAQRLRQLQGCPWAPGPAPCLLPQLELHPGLLDKNCHLLRLSFEEQQPQKDGGKDGAGTQGGEESQSRREDEPKTERQGGVQPQAGDGAQTPKEEKAQTTREEGAQTLEEDRAQTPHEDGGPQPHRGGRPNKKKKFKGRLKSISREPSPALGPNLDGSGLLPRPIFYCSFPTRMPGDKRSPRITGLCPFGPREILVADEQNRALKRFSLNGDYKGTVPVPEGCSPCSVAALQSAVAFSASARLYLINPNGEVQWRRALSLSQASHAVAALPSGDRVAVSVAGHVEVYNMEGSLATRFIPGGKASRGLRALVFLTTSPQGHFVGSDWQQNSVVICDGLGQVVGEYKGPGLHGCQPGSVSVDKKGYIFLTLREVNKVVILDPKGSLLGDFLTAYHGLEKPRVTTMVDGRYLVVSLSNGTIHIFRVRSPDS
For the molecule B1, the binding entry is recorded as “binds”.

The values are drawn from PMC10940101.
